# Laboratory results taken from the supplement of paper PMC11438910.
# This is one part of the list. Most of these values are background signal.
# Tests used:
# Test in all cases: fluorescence intensity of antibody binding to polysaccharide-coupled beads; higher = stronger binding
# [1] = biological target: pneumococcal polysaccharide Pn35C
# [2] = biological target: pneumococcal polysaccharide Pn35F
# [3] = biological target: pneumococcal polysaccharide Pn36
# [4] = biological target: pneumococcal polysaccharide Pn37
# [5] = biological target: pneumococcal polysaccharide Pn38
# [6] = biological target: pneumococcal polysaccharide Pn39
# [7] = biological target: pneumococcal polysaccharide Pn4
# [8] = biological target: pneumococcal polysaccharide Pn40
# [9] = biological target: pneumococcal polysaccharide Pn41A
# [10] = biological target: pneumococcal polysaccharide Pn41F
# [11] = biological target: pneumococcal polysaccharide Pn42
# [12] = biological target: pneumococcal polysaccharide Pn43
# [13] = biological target: pneumococcal polysaccharide Pn44
# [14] = biological target: pneumococcal polysaccharide Pn45
# [15] = biological target: pneumococcal polysaccharide Pn46
# [16] = biological target: pneumococcal polysaccharide Pn47A
# [17] = biological target: pneumococcal polysaccharide Pn47F
# [18] = biological target: pneumococcal polysaccharide Pn48
# [19] = biological target: pneumococcal polysaccharide Pn5
# [20] = biological target: pneumococcal polysaccharide Pn6A
# [21] = biological target: pneumococcal polysaccharide Pn6B
# [22] = biological target: pneumococcal polysaccharide Pn6C
# [23] = biological target: pneumococcal polysaccharide Pn6D
# [24] = biological target: pneumococcal polysaccharide Pn7A
# [25] = antibody concentration 2337.65 ng/mL
# [26] = antibody concentration 12500 ng/mL
# [27] = antibody concentration 0.1 ng/mL
# [28] = antibody concentration 0.534724 ng/mL
# [29] = antibody concentration 2.8593 ng/mL
# [30] = antibody concentration 15.2894 ng/mL
# [31] = antibody concentration 81.7561 ng/mL
# [32] = antibody concentration 437.17 ng/mL
binder,measurement,setting,value
4-173.3 (protein) chain 1: QLQLQESGPGLVKPSETLSLTCAVSGGSINNNYWSWIRQPPGKGLEWIGRIFGSGGSTDYNPSLKSRVTISTDTSKTQFSLNLNSVTAADTAVYFCARGSYQVDYWGQGVLVTVSS chain 2: QAALTQPPSMSGSPGQSVTISCTGTSSDIGGWNRVSWYQQYPGKAPKLMIYEVSKRPSGVSDRFSGSKSGNTASLTISGLQAEDEADYYCSSYVHINNALFGGGTRLTVL,fluorescence intensity,[1]; [25],20.5 MFI
same,fluorescence intensity,[1]; [26],22 MFI
same,fluorescence intensity,[2]; [27],26 MFI
same,fluorescence intensity,[2]; [28],17 MFI
same,fluorescence intensity,[2]; [29],17.2 MFI
same,fluorescence intensity,[2]; [30],16.8 MFI
same,fluorescence intensity,[2]; [31],20 MFI
same,fluorescence intensity,[2]; [32],18.8 MFI
same,fluorescence intensity,[2]; [25],19.2 MFI
same,fluorescence intensity,[2]; [26],22.8 MFI
same,fluorescence intensity,[3]; [27],14.5 MFI
same,fluorescence intensity,[3]; [28],16 MFI
same,fluorescence intensity,[3]; [29],16.5 MFI
same,fluorescence intensity,[3]; [30],17 MFI
same,fluorescence intensity,[3]; [31],15 MFI
same,fluorescence intensity,[3]; [32],16 MFI
same,fluorescence intensity,[3]; [25],17.5 MFI
same,fluorescence intensity,[3]; [26],40 MFI
same,fluorescence intensity,[4]; [27],24 MFI
same,fluorescence intensity,[4]; [28],26 MFI
same,fluorescence intensity,[4]; [29],23.8 MFI
same,fluorescence intensity,[4]; [30],24.8 MFI
same,fluorescence intensity,[4]; [31],26 MFI
same,fluorescence intensity,[4]; [32],26 MFI
same,fluorescence intensity,[4]; [25],37.5 MFI
same,fluorescence intensity,[4]; [26],140 MFI
same,fluorescence intensity,[5]; [27],23.8 MFI
same,fluorescence intensity,[5]; [28],25 MFI
same,fluorescence intensity,[5]; [29],24 MFI
same,fluorescence intensity,[5]; [30],24.2 MFI
same,fluorescence intensity,[5]; [31],23 MFI
same,fluorescence intensity,[5]; [32],26 MFI
same,fluorescence intensity,[5]; [25],26.5 MFI
same,fluorescence intensity,[5]; [26],35.2 MFI
same,fluorescence intensity,[6]; [27],16.5 MFI
same,fluorescence intensity,[6]; [28],16.5 MFI
same,fluorescence intensity,[6]; [29],17.5 MFI
same,fluorescence intensity,[6]; [30],17.5 MFI
same,fluorescence intensity,[6]; [31],18 MFI
same,fluorescence intensity,[6]; [32],17.8 MFI
same,fluorescence intensity,[6]; [25],19.5 MFI
same,fluorescence intensity,[6]; [26],35 MFI
same,fluorescence intensity,[7]; [27],18 MFI
same,fluorescence intensity,[7]; [28],17.2 MFI
same,fluorescence intensity,[7]; [29],16.5 MFI
same,fluorescence intensity,[7]; [30],17.5 MFI
same,fluorescence intensity,[7]; [31],17.5 MFI
same,fluorescence intensity,[7]; [32],19.5 MFI
same,fluorescence intensity,[7]; [25],23.5 MFI
same,fluorescence intensity,[7]; [26],37 MFI
same,fluorescence intensity,[8]; [27],15.2 MFI
same,fluorescence intensity,[8]; [28],15 MFI
same,fluorescence intensity,[8]; [29],15.8 MFI
same,fluorescence intensity,[8]; [30],14.5 MFI
same,fluorescence intensity,[8]; [31],15.2 MFI
same,fluorescence intensity,[8]; [32],15.5 MFI
same,fluorescence intensity,[8]; [25],21 MFI
same,fluorescence intensity,[8]; [26],51 MFI
same,fluorescence intensity,[9]; [27],21.5 MFI
same,fluorescence intensity,[9]; [28],22 MFI
same,fluorescence intensity,[9]; [29],23 MFI
same,fluorescence intensity,[9]; [30],22.5 MFI
same,fluorescence intensity,[9]; [31],21.5 MFI
same,fluorescence intensity,[9]; [32],22.8 MFI
same,fluorescence intensity,[9]; [25],24 MFI
same,fluorescence intensity,[9]; [26],27.5 MFI
same,fluorescence intensity,[10]; [27],12.8 MFI
same,fluorescence intensity,[10]; [28],12 MFI
same,fluorescence intensity,[10]; [29],13 MFI
same,fluorescence intensity,[10]; [30],11.8 MFI
same,fluorescence intensity,[10]; [31],11.5 MFI
same,fluorescence intensity,[10]; [32],13 MFI
same,fluorescence intensity,[10]; [25],15 MFI
same,fluorescence intensity,[10]; [26],21 MFI
same,fluorescence intensity,[11]; [27],11.5 MFI
same,fluorescence intensity,[11]; [28],11 MFI
same,fluorescence intensity,[11]; [29],12 MFI
same,fluorescence intensity,[11]; [30],11.2 MFI
same,fluorescence intensity,[11]; [31],11 MFI
same,fluorescence intensity,[11]; [32],11.2 MFI
same,fluorescence intensity,[11]; [25],12.5 MFI
same,fluorescence intensity,[11]; [26],23.2 MFI
same,fluorescence intensity,[12]; [27],14 MFI
same,fluorescence intensity,[12]; [28],14.5 MFI
same,fluorescence intensity,[12]; [29],15.5 MFI
same,fluorescence intensity,[12]; [30],13.2 MFI
same,fluorescence intensity,[12]; [31],15 MFI
same,fluorescence intensity,[12]; [32],16.5 MFI
same,fluorescence intensity,[12]; [25],24.5 MFI
same,fluorescence intensity,[12]; [26],80.5 MFI
same,fluorescence intensity,[13]; [27],23 MFI
same,fluorescence intensity,[13]; [28],25.2 MFI
same,fluorescence intensity,[13]; [29],24 MFI
same,fluorescence intensity,[13]; [30],23 MFI
same,fluorescence intensity,[13]; [31],25 MFI
same,fluorescence intensity,[13]; [32],25.5 MFI
same,fluorescence intensity,[13]; [25],26.2 MFI
same,fluorescence intensity,[13]; [26],33 MFI
same,fluorescence intensity,[14]; [27],9.5 MFI
same,fluorescence intensity,[14]; [28],11 MFI
same,fluorescence intensity,[14]; [29],11 MFI
same,fluorescence intensity,[14]; [30],10.5 MFI
same,fluorescence intensity,[14]; [31],10.5 MFI
same,fluorescence intensity,[14]; [32],10.5 MFI
same,fluorescence intensity,[14]; [25],12.5 MFI
same,fluorescence intensity,[14]; [26],16.5 MFI
same,fluorescence intensity,[15]; [27],22.5 MFI
same,fluorescence intensity,[15]; [28],23.5 MFI
same,fluorescence intensity,[15]; [29],23.5 MFI
same,fluorescence intensity,[15]; [30],23 MFI
same,fluorescence intensity,[15]; [31],24 MFI
same,fluorescence intensity,[15]; [32],23 MFI
same,fluorescence intensity,[15]; [25],25 MFI
same,fluorescence intensity,[15]; [26],44.8 MFI
same,fluorescence intensity,[16]; [27],15 MFI
same,fluorescence intensity,[16]; [28],15.2 MFI
same,fluorescence intensity,[16]; [29],14.8 MFI
same,fluorescence intensity,[16]; [30],16.5 MFI
same,fluorescence intensity,[16]; [31],15.5 MFI
same,fluorescence intensity,[16]; [32],14.5 MFI
same,fluorescence intensity,[16]; [25],15 MFI
same,fluorescence intensity,[16]; [26],22 MFI
same,fluorescence intensity,[17]; [27],11.5 MFI
same,fluorescence intensity,[17]; [28],11.5 MFI
same,fluorescence intensity,[17]; [29],11 MFI
same,fluorescence intensity,[17]; [30],11 MFI
same,fluorescence intensity,[17]; [31],12 MFI
same,fluorescence intensity,[17]; [32],12 MFI
same,fluorescence intensity,[17]; [25],14.5 MFI
same,fluorescence intensity,[17]; [26],34.5 MFI
same,fluorescence intensity,[18]; [27],20.2 MFI
same,fluorescence intensity,[18]; [28],20.8 MFI
same,fluorescence intensity,[18]; [29],20 MFI
same,fluorescence intensity,[18]; [30],20 MFI
same,fluorescence intensity,[18]; [31],21.5 MFI
same,fluorescence intensity,[18]; [32],21.5 MFI
same,fluorescence intensity,[18]; [25],25.2 MFI
same,fluorescence intensity,[18]; [26],47.5 MFI
same,fluorescence intensity,[19]; [27],8 MFI
same,fluorescence intensity,[19]; [28],8.75 MFI
same,fluorescence intensity,[19]; [29],8.75 MFI
same,fluorescence intensity,[19]; [30],9 MFI
same,fluorescence intensity,[19]; [31],9.5 MFI
same,fluorescence intensity,[19]; [32],9.5 MFI
same,fluorescence intensity,[19]; [25],11.8 MFI
same,fluorescence intensity,[19]; [26],37.5 MFI
same,fluorescence intensity,[20]; [27],23 MFI
same,fluorescence intensity,[20]; [28],20.5 MFI
same,fluorescence intensity,[20]; [29],20.5 MFI
same,fluorescence intensity,[20]; [30],19.2 MFI
same,fluorescence intensity,[20]; [31],20.5 MFI
same,fluorescence intensity,[20]; [32],23 MFI
same,fluorescence intensity,[20]; [25],25.5 MFI
same,fluorescence intensity,[20]; [26],36 MFI
same,fluorescence intensity,[21]; [27],18.5 MFI
same,fluorescence intensity,[21]; [28],17.5 MFI
same,fluorescence intensity,[21]; [29],20 MFI
same,fluorescence intensity,[21]; [30],17 MFI
same,fluorescence intensity,[21]; [31],17.5 MFI
same,fluorescence intensity,[21]; [32],18.5 MFI
same,fluorescence intensity,[21]; [25],21.5 MFI
same,fluorescence intensity,[21]; [26],33 MFI
same,fluorescence intensity,[22]; [27],17 MFI
same,fluorescence intensity,[22]; [28],43 MFI
same,fluorescence intensity,[22]; [29],77.2 MFI
same,fluorescence intensity,[22]; [30],53.8 MFI
same,fluorescence intensity,[22]; [32],71.5 MFI
same,fluorescence intensity,[22]; [25],83 MFI
same,fluorescence intensity,[22]; [26],108 MFI
same,fluorescence intensity,[23]; [27],14.5 MFI
same,fluorescence intensity,[23]; [28],16.5 MFI
same,fluorescence intensity,[23]; [29],16.5 MFI
same,fluorescence intensity,[23]; [30],18.2 MFI
same,fluorescence intensity,[23]; [31],16.5 MFI
same,fluorescence intensity,[23]; [32],17.5 MFI
same,fluorescence intensity,[23]; [25],18 MFI
same,fluorescence intensity,[23]; [26],23.5 MFI
same,fluorescence intensity,[24]; [27],20.5 MFI
same,fluorescence intensity,[24]; [28],18.5 MFI
same,fluorescence intensity,[24]; [29],19 MFI

# Reformatted tab-delimited: part of the list above.
binder	measurement	setting	value
4-173.3 (protein) chain 1: QLQLQESGPGLVKPSETLSLTCAVSGGSINNNYWSWIRQPPGKGLEWIGRIFGSGGSTDYNPSLKSRVTISTDTSKTQFSLNLNSVTAADTAVYFCARGSYQVDYWGQGVLVTVSS chain 2: QAALTQPPSMSGSPGQSVTISCTGTSSDIGGWNRVSWYQQYPGKAPKLMIYEVSKRPSGVSDRFSGSKSGNTASLTISGLQAEDEADYYCSSYVHINNALFGGGTRLTVL	fluorescence intensity	[6]; [29]	17.5 MFI
same	fluorescence intensity	[6]; [30]	17.5 MFI
same	fluorescence intensity	[6]; [31]	18 MFI
same	fluorescence intensity	[6]; [32]	17.8 MFI
same	fluorescence intensity	[6]; [25]	19.5 MFI
same	fluorescence intensity	[6]; [26]	35 MFI
same	fluorescence intensity	[7]; [27]	18 MFI
